The whole screen tested about 340,000 compounds, of which about 170 (0.05%) were called active. This list was built around the results that the source calls inconclusive (neither active nor inactive); the mix of calls is not that of the screen. The call rests on the fitted dose curve; in most records, active means well fitted inhibition curve with a large enough effect in the signal ratio, with a control signal flat (not every such curve was filed as active); inconclusive means small, poorly fitted or top-dose-only effect, or effect the other way, or a change in a side signal; inactive means flat fitted curve, though single readings scatter; the % refers to the signal ratio. Potencies of inconclusive entries are doubtful fits and often do not repeat.
Assay: qHTS Assay to Find Inhibitors of Chronic Active B-Cell Receptor Signaling;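 on activity change, negative = inhibition: plate controls were basal doxycycline-induced cells for no effect and cells given 10 µM MG132 for full effect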
Settings: ABC-DLBCL IkBa-CBG/CBR reporter, luminescence ratio (green luciferase fused to IkBa over red control in TMD8 lymphoma cells), 4 h; activity change, negative = inhibition: at 46.1 µM (top of the series)
In short: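 TMD8 ABC-DLBCL cells carrying doxycycline-inducible green luciferase fused to IkappaBalpha plus unfused red luciferase were exposed to compounds (up to 46 uM) for 4 hrs at 37C. Activity came from the overlap-corrected green/red luminescence ratio.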
Potency means the concentration at half of the fitted maximal effect.

Structure (SMILES)	activity change, negative = inhibition	Potency
Cc1ccc(NC(=O)C2=CCN(S(=O)(=O)c3ccc(F)cc3)CC2)cc1	inconclusive: 4.92%	
Cc1ccc2c(c1)CCCN2CC(=O)N(C)c1c(N)n(Cc2ccccc2)c(=O)[nH]c1=O	inactive: -1.76%	
Cc1ccc(-c2cc(C(=O)OCC(=O)N(C)C3CCS(=O)(=O)C3)c3ccccc3n2)c(C)c1 (stereo not drawn)	inconclusive: -11.1%	
COc1ccc2[nH]c3c(c2c1)CCN1C(=O)N([C@@H](C)C(=O)NCCc2ccc(OC)c(OC)c2)C(=O)[C@]31C	inactive: 7.44%	
CCCc1cc(-c2nc(-c3ccc(C)cc3)cs2)ccn1	inconclusive: 3.44%	
CC(C)C(=O)Nc1ccc(-c2csc(-c3ccccc3)n2)cc1	inconclusive: 19.1%	
N/C(=N\OC(=O)COc1ccc(Cl)cc1Cl)c1ccncc1		inconclusive: 0.631 µM [rising, full curve]
COC(=O)NC1(C(=O)O)CCCC1	inactive: -3.02%	
Cc1ccc(C(=O)N2CCN(c3ccc([N+](=O)[O-])c(NCc4cccnc4)c3)CC2)cc1	inconclusive: -0.282%	
Nc1nc(-c2ccc(Cl)cc2)c(N=Nc2ccc(S(=O)(=O)N3CCOCC3)cc2)s1	inactive: -1.29%	
Cc1ccc(N2CC(C(=O)Nc3nccs3)CC2=O)cc1Cl (stereo not drawn)		inconclusive: 29.1 µM [rising, single point]
CCCN1C(=O)c2ccccc2NC1c1cc(OC)c(OC)c(OC)c1 (stereo not drawn)	inactive: -1.96%	
CCn1c2ccccc2c2nnc(NN)nc21	inconclusive: -0.607%	
Cc1cc(N)ccc1NC(=O)CN1CCCC1	inconclusive: 5.59%	
CC(C)Cc1cc(C(=O)N2CCCC(C(=O)c3cc(F)ccc3F)C2)no1 (stereo not drawn)	inactive: 3.13%	
CSc1nc(NCC(C)O)c2c3c(sc2n1)CN(C)CC3 (stereo not drawn)	inconclusive: -14.5%	
COc1cccc(/C=N/c2oc(-c3ccccc3)cc2C#N)c1O	inconclusive: 3.13%	
O=C(N/N=C/c1ccncc1)c1cccc(NC(=O)c2ccc(Cl)cc2)c1	inactive: 0.734%	
O=C(N/N=C/c1ccc2c(c1)OCO2)c1cccs1		inconclusive: 5.17 µM [falling, single point]
Cc1[nH]c2ccccc2c1C(O)CN1CCN(c2cccc(C(F)(F)F)c2)CC1 (stereo not drawn)		inconclusive: 5.01 µM [falling, single point]
C/C(CCc1oc2ccc(Cl)cc2c1-c1ccc(C)o1)=N\O	inconclusive: -16.3%	
O=C(O)C1C2C=CC(C2)C1C(=O)N1CCc2ccccc21 (stereo not drawn)	inconclusive: 12.2%	
O=C(CSc1nc2ccccc2n1S(=O)(=O)c1cccc([N+](=O)[O-])c1)NCCc1ccccc1	inconclusive: 1.66%	
CCn1ncc(C2C(C(=O)Nc3ccc(C)cn3)=C(C)NC3=C2C(=O)CCC3)c1C (stereo not drawn)	inactive: -0.412%	
COc1cc(/C=N/NC(=O)c2ccccn2)cc2c1OCO2		inconclusive: 5.8 µM [falling, partial curve]
CCOC(=O)c1nc(Nc2ccc(C)cc2)c2ccccc2n1	inconclusive: 0.988%	
COc1ccc(NC(=O)CC2CC3CCC2C3)cn1 (stereo not drawn)	inconclusive: 3.01%	

Looked up above:
Cc1ccc2c(c1)CCCN2CC(=O)N(C)c1c(N)n(Cc2ccccc2)c(=O)[nH]c1=O – activity change, negative = inhibition: inactive: -1.76%
COc1ccc(NC(=O)CC2CC3CCC2C3)cn1 (stereo not drawn) – activity change, negative = inhibition: inconclusive: 3.01%
C/C(CCc1oc2ccc(Cl)cc2c1-c1ccc(C)o1)=N\O – activity change, negative = inhibition: inconclusive: -16.3%

(more compounds)

Structure (SMILES)	activity change, negative = inhibition	Potency
Cc1ccccc1C(=O)NC1CC2CCC(C1)N2Cc1ccccc1 (stereo not drawn)		inconclusive: 35.5 µM [falling, single point]
Cc1ccc(S(=O)(=O)c2nc(NCCN(C)C)sc2Cl)cc1	inconclusive: 11.2%	
CSc1nc2ccccc2n1CC(=O)Nc1ccccc1	inactive: -1.48%	
O=C(N/N=C/c1ccc(Cl)cc1)c1ccc2c(c1)OCO2		inconclusive: 35.5 µM [rising, single point]
COc1ccc(C(=O)Nc2nc3ccccc3[nH]2)cc1S(=O)(=O)N1CCCC1		inconclusive: 5.17 µM [rising, full curve, poor fit]
O=C(Nc1nnc(-c2ccc3c(c2)CCCC3)o1)c1ccc(Cl)cc1Cl		inconclusive: 29.1 µM [falling, single point]
COc1cccc2c1[C@@H]1CN(CCCCn3c(=O)[nH]c4c(sc5ncc(-c6ccccc6)nc54)c3=O)C[C@@H]1CO2	inconclusive: 4.63%	
COC(=O)c1ccc(NC(=O)Nc2ccc([N+](=O)[O-])cc2)cc1	inconclusive: -5.37%	
CCOc1ccc(S(=O)(=O)N2CCC(C(=O)Nc3cccc(NC(C)=O)c3)CC2)cc1	inconclusive: 11%	
CCCNC(=O)Nc1cc(OCC)c(N2CCOCC2)cc1OCC	inactive: -4.91%	
CC1=NN(C(=O)c2ccc(Br)cc2)C(O)(C(F)(F)OC(F)(F)F)C1 (stereo not drawn)	inactive: -2.86%	
COc1cc(Nc2nc(SCc3cccc(Cl)c3)nc3ccccc23)cc(OC)c1	inactive: 26.4%	
CC(=O)Nc1ccc2c(c1)ncn2-c1ccccc1		inconclusive: 22.4 µM [falling, partial curve]
CCOC(=O)/C(=N/Nc1ccc(OC)cc1)N1CCCc2ccccc21	inconclusive: 0.703%	
COc1ccccc1C(=O)NCC(=O)N/N=C/c1cccc(Cl)c1		inconclusive: 6.31 µM [falling, single point]
O=[N+]([O-])c1ccc2[nH]c(O)c(N=NC(=S)Nc3cccnc3)c2c1	inactive: 3.24%	
COc1ccc(C(=O)OCC(=O)c2ccc(Cl)s2)c(OC)c1OC	inconclusive: -6.29%	
COc1ccc(OCc2n[nH]c(=S)o2)cc1		inconclusive: 29.1 µM [falling, single point]
CC(=O)c1c(Nc2cccc(F)c2)oc(C)cc1=O	inconclusive: 2.05%	
Cc1cc(C(=O)N/N=C/c2ccc3c(c2)OCO3)c2ccccc2n1		inconclusive: 35.5 µM [falling, single point]
Cc1ccc(OCc2cc(C(=O)NC(C)Cc3cnccn3)no2)cc1C (stereo not drawn)	inconclusive: -18.1%	
CCOc1ccc(C2C(C#N)=C(N)Oc3cc(C)n(Cc4ccco4)c(=O)c32)cc1OC (stereo not drawn)	inconclusive: 28.4%	
O=c1c2ccccc2nc(/C=C/c2ccc(O)cc2)n1CCc1ccccc1	inconclusive: -3.88%	
Clc1ccc(CON/C=N/c2ncnc3sccc23)cc1	inconclusive: -18.1%	
CC1(CCc2ccccc2)NC(=S)N(c2ccc(Cl)cc2)N1 (stereo not drawn)	inconclusive: 5.85%	
CC(=O)c1ccc(NC(=O)C2=CC(c3cccs3)=NS(=O)(=O)N2C)cc1	inactive: 0.205%	

From PubChem BioAssay AID493014 (National Center for Advancing Translational Sciences (NCATS), 2011)
